# In the supplement of paper PMC8728848:
# The list shows a part of the results.
# B1: GS7807F-bth-514-18-514 (Bacteroides thetaiotaomicron) (protein)
# chain: AGSCTGNFEEYNTNQFQIHEADPSTLMKSMIETIVNIQQNDSQMMDQMVGQLGGYLTCANVWSGTNFGTFNQSDAWNAGPWNTNFEKIYGNFFQIQEATNESGHYYAFARMIRAITMLRVADCYGPMPYSQVKKGNFYVAYDTEEQVYKNIMEDFASAANVLYNYYKDTNGNAPLASNDPVFSGNYANWARLANSMRLRVAIRISTAYPEMAKENAEAAASHEAGLIEANNDNAMMDCGSQTNPYQLAAVSWGDLRVNANIVDYMNGYGDPRMSKYFNHSTFTGHTQEYVGMRSGEDGFAKSDVAGYSIPAITGTSKLLVFCAAETAFLRAEGKLKNWSVGNKSAKEYYEEGIKLSMEQYGTTMPDNYLTNTEKPTVSHNNDPRGHAYTISNTVAVAWNDNNEEENLQRIITQKWIANYPLGLEAWAEYRRTGYPELYPCIDNLSPSGVDSKRGMRRLRFPYTEVQNNHSNYQQGVSYLKNGGPDNEATDLSWGKTN
# Experiments:
# Assay in all cases: glycan array binding signal (z-score within array); higher = stronger binding
# Conditions in all cases: glycan notation: IUPAC condensed, linker removed
# Gal(b1-2)Gal = biological target: Gal(b1-2)Gal
# In short: (§1)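 The binding signal is a Z-score computed within each array and averaged over linkers. Arrays of the same protein sequence at different concentrations or buffers were also averaged together. Data originate from 3228 arrays in the Consortium for Functional Glycomics database, kept only where the protein sequence was available.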
# Gal(b1-3)Gal = biological target: Gal(b1-3)Gal
# In short: as §1
# Gal(b1-3)Gal(b1-4)GlcNAc = biological target: Gal(b1-3)Gal(b1-4)GlcNAc
# In short: as §1
# Gal(b1-3)GalNAc = biological target: Gal(b1-3)GalNAc
# In short: as §1
# [1] = biological target: Gal(b1-3)GalNAc(a1-3)[Fuc(a1-2)]Gal(b1-4)Glc
# In short: as §1
# [2] = biological target: Gal(b1-3)GalNAc(a1-3)[Fuc(a1-2)]Gal(b1-4)GlcNAc
# In short: as §1
# Gal(b1-3)GalNAc(b1-3)Gal = biological target: Gal(b1-3)GalNAc(b1-3)Gal
# In short: as §1
# [3] = biological target: Gal(b1-3)GalNAc(b1-3)Gal(a1-4)Gal(b1-4)Glc
# In short: as §1
# [4] = biological target: Gal(b1-3)GalNAc(b1-4)Gal(b1-4)Glc
# In short: as §1
# [5] = biological target: Gal(b1-3)GalNAc(b1-4)[Neu5Ac(a2-3)]Gal(b1-4)Glc
# In short: as §1
# Gal(b1-3)GlcNAc = biological target: Gal(b1-3)GlcNAc
# In short: as §1
# [6] = biological target: Gal(b1-3)GlcNAc(a1-3)Gal(b1-4)GlcNAc
# In short: as §1
# [7] = biological target: Gal(b1-3)GlcNAc(a1-6)Gal(b1-4)GlcNAc
# In short: as §1
# Gal(b1-3)GlcNAc(b1-2)Man = biological target: Gal(b1-3)GlcNAc(b1-2)Man
# In short: as §1
# [8] = biological target: Gal(b1-3)GlcNAc(b1-2)Man(a1-3)[Gal(b1-3)GlcNAc(b1-2)Man(a1-6)]Man(b1-4)GlcNAc(b1-4)GlcNAc
# In short: as §1
# [9] = biological target: Gal(b1-3)GlcNAc(b1-2)Man(a1-3)[Gal(b1-3)GlcNAc(b1-2)Man(a1-6)]Man(b1-4)GlcNAc(b1-4)[Fuc(a1-6)]GlcNAc
# In short: as §1
# [10] = biological target: Gal(b1-3)GlcNAc(b1-2)Man(a1-3)[GlcNAc(b1-4)][Gal(b1-3)GlcNAc(b1-2)Man(a1-6)]Man(b1-4)GlcNAc(b1-4)GlcNAc
# In short: as §1
# [11] = biological target: Gal(b1-3)GlcNAc(b1-2)[Gal(b1-3)GlcNAc(b1-6)]Man(a1-6)[Gal(b1-3)GlcNAc(b1-2)Man(a1-3)]Man(b1-4)GlcNAc(b1-4)GlcNAc
# In short: as §1
# [12] = biological target: Gal(b1-3)GlcNAc(b1-3)Gal(b1-3)GlcNAc
# In short: as §1
# [13] = biological target: Gal(b1-3)GlcNAc(b1-3)Gal(b1-4)Glc
# In short: as §1
# [14] = biological target: Gal(b1-3)GlcNAc(b1-3)Gal(b1-4)GlcNAc
# In short: as §1
# [15] = biological target: Gal(b1-3)GlcNAc(b1-3)Gal(b1-4)GlcNAc(b1-2)Man(a1-3)[Gal(b1-3)GlcNAc(b1-3)Gal(b1-4)GlcNAc(b1-2)Man(a1-6)]Man(b1-4)GlcNAc(b1-4)GlcNAc
# In short: as §1
# [16] = biological target: Gal(b1-3)GlcNAc(b1-3)Gal(b1-4)GlcNAc(b1-2)[Gal(b1-3)GlcNAc(b1-3)Gal(b1-4)GlcNAc(b1-6)]Man(a1-6)[Gal(b1-3)GlcNAc(b1-3)Gal(b1-4)GlcNAc(b1-2)Man(a1-3)]Man(b1-4)GlcNAc(b1-4)[Fuc(a1-6)]GlcNAc
# In short: as §1
# [17] = biological target: Gal(b1-3)GlcNAc(b1-3)Gal(b1-4)GlcNAc(b1-3)Gal(b1-4)GlcNAc(b1-2)[Gal(b1-3)GlcNAc(b1-3)Gal(b1-4)GlcNAc(b1-3)Gal(b1-4)GlcNAc(b1-6)]Man(a1-6)[Gal(b1-3)GlcNAc(b1-3)Gal(b1-4)GlcNAc(b1-3)Gal(b1-4)GlcNAc(b1-2)Man(a1-3)]Man(b1-4)GlcNAc(b1-4)[Fuc(a1-6)]GlcNAc
# In short: as §1
# [18] = biological target: Gal(b1-3)GlcNAc(b1-3)Gal(b1-4)GlcNAc(b1-6)[Gal(b1-3)GlcNAc(b1-3)]Gal(b1-4)Glc
# In short: as §1
# [19] = biological target: Gal(b1-3)GlcNAc(b1-3)Gal(b1-4)[Fuc(a1-3)]GlcNAc
# In short: as §1
# [20] = biological target: Gal(b1-3)GlcNAc(b1-3)Gal(b1-4)[Fuc(a1-3)]GlcNAc(b1-6)[Gal(b1-3)GlcNAc(b1-3)]Gal(b1-4)Glc
# In short: as §1
# [21] = biological target: Gal(b1-3)GlcNAc(b1-3)GalNAc
# In short: as §1
# [22] = biological target: Gal(b1-3)GlcNAc(b1-6)Gal(b1-4)GlcNAc
# In short: as §1
# [23] = biological target: Gal(b1-3)GlcNAc(b1-6)GalNAc
# In short: as §1
# [24] = biological target: Gal(b1-3)GlcNAc(b1-6)[Gal(b1-3)]GalNAc
# In short: as §1
# Gal(b1-3)GlcNAc6S = biological target: Gal(b1-3)GlcNAc6S
# In short: as §1
# [25] = biological target: Gal(b1-3)[Fuc(a1-4)]GlcNAc
# In short: as §1
# [26] = biological target: Gal(b1-3)[Fuc(a1-4)]GlcNAc(b1-2)Man
# In short: as §1
# [27] = biological target: Gal(b1-3)[Fuc(a1-4)]GlcNAc(b1-2)Man(a1-3)[Gal(b1-3)[Fuc(a1-4)]GlcNAc(b1-2)Man(a1-6)]Man(b1-4)GlcNAc(b1-4)[Fuc(a1-6)]GlcNAc
# In short: as §1
# [28] = biological target: Gal(b1-3)[Fuc(a1-4)]GlcNAc(b1-3)Gal(b1-3)[Fuc(a1-4)]GlcNAc
# In short: as §1
# [29] = biological target: Gal(b1-3)[Fuc(a1-4)]GlcNAc(b1-3)Gal(b1-4)[Fuc(a1-3)]GlcNAc
# In short: as §1
binder,measurement,setting,value
B1,glycan array binding signal (z-score),Gal(b1-2)Gal,-0.545
same,glycan array binding signal (z-score),Gal(b1-3)Gal,-0.099
same,glycan array binding signal (z-score),Gal(b1-3)Gal(b1-4)GlcNAc,0.501
same,glycan array binding signal (z-score),Gal(b1-3)GalNAc,0.72
same,glycan array binding signal (z-score),[1],1.32
same,glycan array binding signal (z-score),[2],0.382
same,glycan array binding signal (z-score),Gal(b1-3)GalNAc(b1-3)Gal,1.13
same,glycan array binding signal (z-score),[3],0.006
same,glycan array binding signal (z-score),[4],0.212
same,glycan array binding signal (z-score),[5],3.23
same,glycan array binding signal (z-score),Gal(b1-3)GlcNAc,0.308
same,glycan array binding signal (z-score),[6],0.716
same,glycan array binding signal (z-score),[7],-0.717
same,glycan array binding signal (z-score),Gal(b1-3)GlcNAc(b1-2)Man,0.647
same,glycan array binding signal (z-score),[8],2.03
same,glycan array binding signal (z-score),[9],0.491
same,glycan array binding signal (z-score),[10],1.19
same,glycan array binding signal (z-score),[11],1.13
same,glycan array binding signal (z-score),[12],-0.612
same,glycan array binding signal (z-score),[13],-0.157
same,glycan array binding signal (z-score),[14],-0.41
same,glycan array binding signal (z-score),[15],-0.007
same,glycan array binding signal (z-score),[16],1.69
same,glycan array binding signal (z-score),[17],1.85
same,glycan array binding signal (z-score),[18],0.997
same,glycan array binding signal (z-score),[19],-0.065
same,glycan array binding signal (z-score),[20],-0.274
same,glycan array binding signal (z-score),[21],1.19
same,glycan array binding signal (z-score),[22],0.12
same,glycan array binding signal (z-score),[23],1.49
same,glycan array binding signal (z-score),[24],1.38
same,glycan array binding signal (z-score),Gal(b1-3)GlcNAc6S,2.12
same,glycan array binding signal (z-score),[25],-0.644
same,glycan array binding signal (z-score),[26],-0.122
same,glycan array binding signal (z-score),[27],1
same,glycan array binding signal (z-score),[28],-0.44
same,glycan array binding signal (z-score),[29],-0.842

# At a glance, part of the list above:
binder,measurement,setting,value
B1,glycan array binding signal (z-score),[8],2.03
same,glycan array binding signal (z-score),[9],0.491
